Patent US20030215431A1, “Management of mucosal viscosity by TFF monomer peptides” (priority 2002, published 2003)
At least one peptide structure holds a part that was inferred or is arguable (an end, a ring closure or a residue).

Tested on: Mucin I (crude mucin, type II from porcine stomach)
Test: Rheometer measurement, viscosity versus shear rate of mucin I solution (constant rate)
Type: physicochemical
Conditions: 2 ml 10% (w/v) mucin I in 0.05% sodiumazide plus 7.05 mg TFF3 monomer; 30 min at 20° C.; compared to TFF2

In the case of `CC[C@H](C)[C@@H]1NC(=O)[C@H](CCCNC(=N)N)NC(=O)[C@H](CO)NC(=O)[C@H](CC(=O)O)NC(=O)[C@H](Cc2ccccc2)NC(=O)[C@@H]2CSSC[C@H](NC(=O)[C@H](CCC(N)=O)NC(=O)[C@H](CC(N)=O)NC(=O)[C@H](C)NC(=O)[C@H](CO)NC(=O)[C@H](CC(C)C)NC(=O)CNC(=O)[C@@H](NC(=O)[C@H](Cc3ccc(O)cc3)NC(=O)[C@H](CCC(=O)O)NC(=O)[C@@H](N)CCC(=O)O)C(C)C)C(=O)N[C@@H](C)C(=O)N[C@@H](C(C)C)C(=O)N3CCC[C@H]3C(=O)N[C@@H](C)C(=O)N[C@@H](CCCCN)C(=O)N[C@@H](CC(=O)O)C(=O)N[C@@H](CCCNC(=N)N)C(=O)N[C@@H](C(C)C)C(=O)N[C@@H](CC(=O)O)C(=O)N[C@H]3CSSC[C@H](NC(=O)CNC(=O)[C@H](CCCNC(=N)N)NC(=O)[C@H](CC(N)=O)NC(=O)[C@H](CC(N)=O)NC(=O)[C@H](CSSC[C@@H](C(=O)N[C@@H](Cc4ccccc4)C(=O)N[C@@H](CCCCN)C(=O)N4CCC[C@H]4C(=O)N[C@@H](CC(C)C)C(=O)N[C@@H](CCC(N)=O)C(=O)N[C@@H](CCC(=O)O)C(=O)N[C@@H](C)C(=O)N[C@@H](CCC(=O)O)C(=O)N[C@@H](CS)C(=O)N[C@H](C(=O)N[C@@H](Cc4ccccc4)C(=O)O)[C@@H](C)O)NC(=O)[C@H](Cc4c[nH]c5ccccc45)NC(=O)[C@@H]4CCCN4C(=O)[C@H](C(C)C)NC(=O)CNC(=O)[C@@H]4CCCN4C1=O)NC(=O)[C@H](CCC(=O)O)NC(=O)[C@H](CCCCN)NC(=O)[C@@H]1CCCN1C(=O)[C@H]([C@@H](C)O)NC(=O)[C@H](C(C)C)NC(=O)[C@H](Cc1c[nH]cn1)NC(=O)[C@@H]1CCCN1C(=O)[C@H](Cc1ccc(O)cc1)NC(=O)CNC3=O)C(=O)N2` [TFF3 monomer], the “Change in viscosity of mucin I solution (FIG. 3)” value is reported as “significant decreased effect on the viscosity”.
